Several values for one entry are separate records, joined by “and”; a condition that tells them apart may be missing. Equal values may be shown once. Hit rate of the full screen: of about 330,000 compounds, about 7,700 (2.3%) were called active. Inconclusive means that the source gave no clear call. Such entries were picked first, then a sample of the others. Calls come from the whole dose curve; as a rule, active = well fitted inhibition curve with a large enough effect; inconclusive = small, poorly fitted or top-dose-only effect, or effect the other way; inactive = flat fitted curve, though single readings scatter. Where the call is inconclusive, the potency comes from a doubtful curve fit.
Test: qHTS screen for small molecules that inhibit ELG1-dependent DNA repair in human embryonic kidney (HEK293T) cells expressing luciferase-tagged ELG1; note: nearly all actives have a fitted effect of over 55% in size
Conditions: HEK293T ELG1-luciferase reporter, luminescence, 16 h, DNA damage induced by 5-fluorouridine; series mostly up to 46.1 µM
Procedure, shortened: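 Cells (2,000 per well) received 5-fluorouridine plus test compound or DMSO and were incubated 16 hr at 37 °C, 5% CO2. Luciferase activity was read by luminescence 30 min after ONE-Glo addition; signal suppression marked inhibition of damage-induced ELG1 function.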
For `Cc1ccc(NC(=O)COc2ccc(N(C)S(=O)(=O)c3ccc(F)cc3)cc2)cc1`, the Potency was inconclusive: 18.3 µM [inhibitor, single point].
In the case of `Cc1ccc(NS(=O)(=O)c2cc(N)ccc2Cl)c(C)c1`, the Potency is reported as inconclusive: 16.4 µM [inhibitor, single point].
With `CC(=O)N(C)c1nc(-c2ccc(Cl)cc2)cs1` the Potency was inconclusive: 8.2 µM [activator, partial curve, poor fit].
In the case of `CCN1C(=O)c2cccc3c(Cl)ccc1c23`, the Potency is reported as inconclusive: 16.4 µM [activator, partial curve, poor fit].
For `COc1ccc(CN2CCN(CCc3ccccc3)C(CCO)C2)c(O)c1` (centres undefined), the Potency was “inactive”.
In the case of `N/C(=N\OC(=O)CSc1ccccc1)c1cccc([N+](=O)[O-])c1`, the Potency is reported as inconclusive: 18.4 µM [activator, single point].
For `COc1ccc(/C=C/C(=O)Nc2c(C)nn(C)c2C)cc1COc1ccc(Cl)cc1Br`, the Potency was inconclusive: 8.2 µM [inhibitor, partial curve].
For `COc1ccc(CCN(Cc2cccs2)S(=O)(=O)c2ccc(S(=O)(=O)N3CCCCCC3)cc2)cc1OC`, the Potency was active: 2.91 µM.
For `O=C(CCCc1ccccc1)Nc1cccc(C(=O)O)c1`, the Potency was inconclusive: 0.461 µM [activator, full curve].
For `O=C(Nc1cc2c3c(c1)CC(=O)N3CCC2)c1ccc(Br)cc1`, the Potency was inconclusive: 14.6 µM [activator, single point].
In the case of `Cc1cc(-n2c(SCC(=O)NCc3cccs3)nc3n[nH]c(C)c3c2=N)ccc1Cl`, the Potency is reported as inconclusive: 25.9 µM [inhibitor, single point].
For `Cc1ccc(Cl)cc1N1CCN(C(=S)NCc2ccco2)CC1`, the Potency was inconclusive: 29.1 µM [inhibitor, single point].
For `COc1ccc(CCNC(=O)[C@H](C)N2C(=O)N3CCc4c([nH]c5ccccc45)[C@@]3(C)C2=O)cc1`, the Potency was inconclusive: 5.8 µM [inhibitor, single point].
For `O=C(N/N=C(\c1ccccc1)c1cccnc1)c1cccc(F)c1`, the Potency was inconclusive: 23.1 µM [activator, single point].
In the case of `O=C(Nc1nnc(-c2ccco2)s1)c1ccccc1`, the Potency is reported as inconclusive: 0.461 µM [activator, full curve].
For `COc1ccccc1N(CN1CCCC1=O)C(=O)c1c(F)cccc1F`, the Potency was “inactive”.
For `O=C(N/N=C/c1ccc2c(c1)OCO2)C1CC1`, the Potency was inconclusive: 16.4 µM [activator, partial curve].
For `O=S1(=O)N=C(N2CCOCC2)c2ccccc21`, the Potency was “inactive”.
For `COc1ccc(/C=C\C(=O)Oc2cccc(/C=N/NC(=O)Cc3ccc(OC)c(OC)c3)c2)cc1`, the Potency was inconclusive: 13 µM [activator, partial curve].
With `CC(=O)c1sc(NC(=O)c2cc(S(=O)(=O)N3CCOCC3)ccc2F)nc1C` the Potency was inconclusive: 18.3 µM [activator, partial curve, poor fit].
For `CC(C)C(=O)Nc1c(-c2cccc(Cl)c2)c(=O)c2ccccc2n1C`, the Potency was “inactive”.
For `CCCCCCOc1ccc(/C=C/C(=O)N2CCOCC2)cc1OC`, the Potency was inconclusive: 29.1 µM [inhibitor, single point].
In the case of `COc1ccc(-c2cc(=O)oc3c(C)c(O)c(CN(C)C)cc23)cc1`, the Potency is reported as inconclusive: 14.6 µM [inhibitor, partial curve].
With `O=S(=O)(Nc1ccc(-c2nc3cccnc3s2)cc1)c1ccccc1F` the Potency was inconclusive: 29.1 µM [activator, single point].
With `O=C(Nc1nccs1)C12CC3CC(C1)CC(C(=O)Nc1nccs1)(C3)C2` the Potency was inconclusive: 16.4 µM [inhibitor, partial curve, poor fit].
For `CCOc1ccc(Nc2nc(NCC3CCCO3)c3ccccc3n2)cc1` (centres undefined), the Potency was active: 7.3 µM.
With `COc1ccc(/C=C/C(=O)c2ccc(C)c([N+](=O)[O-])c2)cc1O` the Potency was inconclusive: 18.4 µM [activator, single point].
In the case of `Cc1ccc(N2CC(C(=O)N/N=C/c3sccc3C)CC2=O)cc1` (centres undefined), the Potency is reported as “inactive”.
With `O=C(c1ccc(F)c(S(=O)(=O)N2CCOCC2)c1)N1CCN(c2ccc(F)cc2)CC1` the Potency was inconclusive: 29.1 µM [inhibitor, single point].
With `Cc1noc(C)c1NC(=O)NC(c1ccccc1)c1ccccc1` the Potency was inconclusive: 18.3 µM [activator, partial curve, poor fit].
For `COc1ccc(-c2cc(-c3ccc(OC)cc3)nc(-c3ccc4c(c3)NC(=O)CO4)c2)cc1`, the Potency was inconclusive: 14.6 µM [inhibitor, partial curve].
In the case of `COc1ccccc1CN(Cc1nc2ccccc2c(=O)[nH]1)S(=O)(=O)c1ccc(C)cc1`, the Potency is reported as active: 23.1 µM.
For `COc1ccccc1N(CC(=O)Nc1ccc(Cc2ccncc2)cc1)S(=O)(=O)c1ccccc1`, the Potency was active: 18.3 µM.
For `C=C(C)COc1ccc2c3c(c(=O)oc2c1OCC(=C)C)CCC3`, the Potency was “inactive”.
For `Cc1ccc(S(=O)(=O)NCCC(=O)Nc2ccc(S(=O)(=O)NC(C)C)cc2)cc1`, the Potency was “inactive”.
With `COc1ccc2c(c1)C(=O)N(c1ccccc1OC)C(=O)C2` the Potency was inconclusive: 25.9 µM [activator, partial curve, poor fit].
With `CCN(CC)CCNC(=O)c1c(O)c2cccc3c2n(c1=O)CCC3` the Potency was “inactive”.
In the case of `CC(C)OCC(O)CN1CCN(CCN2C(=O)c3cccc4cccc(c34)C2=O)CC1` (centres undefined), the Potency is reported as “inactive”.
With `CCOc1cc(N2CCOCC2)c(OCC)cc1NC(=O)c1cc(-c2ccco2)nc2ccccc12` the Potency was active: 2.59 µM.
With `CCOc1cc(N2CCOCC2)c(OCC)cc1NC(=O)CCC1CCCC1` the Potency was inconclusive: 8.2 µM [inhibitor, partial curve].
In the case of `Cc1c(NC(=O)c2nn3c(C(F)(F)F)cc(-c4ccccc4)nc3c2Cl)c(=O)n(-c2ccccc2)n1C`, the Potency is reported as inconclusive: 16.4 µM [inhibitor, single point].
In the case of `O=C(Nc1ccnn1C1CCN(C(=O)c2cc(Cl)ccc2F)CC1)C1CCOC1` (centres undefined), the Potency is reported as “inactive”.
With `Cc1cc(Cn2nnc3ccccc32)c(O)c(C(C)(C)C)c1` the Potency was “inactive”.
With `COc1ccc(/C=C2\SC(=S)N(CC(=O)NCCO)C2=O)cc1` the Potency was inconclusive: 13 µM [activator, partial curve].
With `COc1ccc(C)cc1NC(=O)CCCNC(=O)Cn1cnc2sc(C)c(C)c2c1=O` the Potency was “inactive”.
In the case of `CCOc1ccc(C(=O)NCC(=O)OCc2nnc(-c3ccccc3)o2)cc1OCC`, the Potency is reported as “inactive”.
In the case of `Cc1ccc(NC(=O)CN(C)CC(=O)N(CC(C)C)c2c(N)n(CC(C)C)c(=O)[nH]c2=O)c(C)c1`, the Potency is reported as “inactive”.
For `Cc1noc2ncnc(Oc3cc(Cl)ccc3Cl)c12`, the Potency was inconclusive: 18.3 µM [activator, single point].
With `CCOCCCn1cnc2c3cc(F)ccc3n(C)c2c1=O` the Potency was inconclusive: 18.3 µM [activator, single point].
With `COc1ccc(OC)c(CCNC(=O)CC2(CC3=NS(=O)(=O)c4ccccc4N3)CCCC2)c1` the Potency was inconclusive: 16.4 µM [inhibitor, single point].
In the case of `Cc1ccc(-c2cc(C(=O)O)c3cc(Br)ccc3n2)s1`, the Potency is reported as inconclusive: 18.3 µM [activator, partial curve] and inconclusive: 23.1 µM [activator, single point].
With `COc1ccc(-c2csc3ncnc(Sc4nnnn4C)c23)cc1` the Potency was inconclusive: 23.1 µM [inhibitor, single point].
With `Cc1ccc(/C=N/NC(=O)Cn2cnc3c2c(=O)n(C)c(=O)n3C)s1` the Potency was “inactive”.
With `O=C(CSc1nnc(SCc2ccc(Cl)cc2)s1)N/N=C/c1ccc(Cl)cc1Cl` the Potency was “inactive”.
In the case of `CN(C)CC(O)CN(c1ccccc1)c1ccccc1` (centres undefined), the Potency is reported as inconclusive: 16.4 µM [activator, single point].
With `Cc1nc(Cl)sc1C(=O)Nc1ccc(C(C)(C)C)cc1` the Potency was inconclusive: 9.2 µM [activator, partial curve, poor fit].
In the case of `CNC(=O)CN(c1ccc(Oc2ccccc2)cc1)S(=O)(=O)c1ccc(C)cc1`, the Potency is reported as “inactive”.
For `Cc1cc(C(=O)OCC(=O)NCc2cccs2)ccc1[N+](=O)[O-]`, the Potency was inconclusive: 5.17 µM [inhibitor, partial curve, poor fit].
For `CCCCC1CCC(C(=O)Nc2ccccc2N2CCOCC2)CC1` (centres undefined), the Potency was “inactive”.
For `Cc1cc(CNC(=O)c2cc(COc3ccc(F)c(F)c3)on2)nn1C`, the Potency was inconclusive: 5.17 µM [activator, single point].
For `CC1CCCN(C(=O)CN2C(=O)c3ccccc3S2(=O)=O)C1` (centres undefined), the Potency was inconclusive: 14.6 µM [activator, partial curve].
For `O=C1c2ccccc2C(=O)c2c1ccc1c(=O)n(C3CCCCC3)[nH]c21`, the Potency was active: 20.6 µM.
In the case of `COc1ccc(NC(=O)/C(C#N)=C\C=C\c2ccco2)cc1`, the Potency is reported as inconclusive: 9.2 µM [inhibitor, partial curve, poor fit].
In the case of `Cc1cc(C)n2nc(C(=O)Nc3ccc4c(c3)CCC4)nc2n1`, the Potency is reported as inconclusive: 18.3 µM [activator, partial curve].
In the case of `CC(OC(=O)C1CCCCC1)C(=O)Nc1ccc(S(N)(=O)=O)cc1` (centres undefined), the Potency is reported as inconclusive: 11.2 µM [activator, single point].
With `O=C(NCc1ccc(Cl)s1)C1CCC(=O)N(CCc2ccccn2)C1` (centres undefined) the Potency was “inactive”.
In the case of `COc1ccc(-c2cc(C(F)F)n3ncc(C(=O)N4CCN5CCCC5C4)c3n2)cc1` (centres undefined), the Potency is reported as inconclusive: 9.2 µM [inhibitor, partial curve, poor fit].
In the case of `O=C(COc1ccccc1)NCC(=O)Nc1cccc(S(=O)(=O)NC2=NCCC2)c1`, the Potency is reported as “inactive”.
In the case of `CCCNC(=O)c1n[nH]c(=O)c2ccccc12`, the Potency is reported as “inactive”.
Potency is the fitted concentration of half-maximal effect.
